These are yes or no findings as the source states them, for the method shown. In cells and extracts the contact can be indirect. These calls come from enrichment with a bait or labelling near it, and not all partners need be listed.

By UniProt entry, the sequences of proteins in these tests, tags left out. Residues count along the entry.
UniProt Q9WV18, residues 20-960: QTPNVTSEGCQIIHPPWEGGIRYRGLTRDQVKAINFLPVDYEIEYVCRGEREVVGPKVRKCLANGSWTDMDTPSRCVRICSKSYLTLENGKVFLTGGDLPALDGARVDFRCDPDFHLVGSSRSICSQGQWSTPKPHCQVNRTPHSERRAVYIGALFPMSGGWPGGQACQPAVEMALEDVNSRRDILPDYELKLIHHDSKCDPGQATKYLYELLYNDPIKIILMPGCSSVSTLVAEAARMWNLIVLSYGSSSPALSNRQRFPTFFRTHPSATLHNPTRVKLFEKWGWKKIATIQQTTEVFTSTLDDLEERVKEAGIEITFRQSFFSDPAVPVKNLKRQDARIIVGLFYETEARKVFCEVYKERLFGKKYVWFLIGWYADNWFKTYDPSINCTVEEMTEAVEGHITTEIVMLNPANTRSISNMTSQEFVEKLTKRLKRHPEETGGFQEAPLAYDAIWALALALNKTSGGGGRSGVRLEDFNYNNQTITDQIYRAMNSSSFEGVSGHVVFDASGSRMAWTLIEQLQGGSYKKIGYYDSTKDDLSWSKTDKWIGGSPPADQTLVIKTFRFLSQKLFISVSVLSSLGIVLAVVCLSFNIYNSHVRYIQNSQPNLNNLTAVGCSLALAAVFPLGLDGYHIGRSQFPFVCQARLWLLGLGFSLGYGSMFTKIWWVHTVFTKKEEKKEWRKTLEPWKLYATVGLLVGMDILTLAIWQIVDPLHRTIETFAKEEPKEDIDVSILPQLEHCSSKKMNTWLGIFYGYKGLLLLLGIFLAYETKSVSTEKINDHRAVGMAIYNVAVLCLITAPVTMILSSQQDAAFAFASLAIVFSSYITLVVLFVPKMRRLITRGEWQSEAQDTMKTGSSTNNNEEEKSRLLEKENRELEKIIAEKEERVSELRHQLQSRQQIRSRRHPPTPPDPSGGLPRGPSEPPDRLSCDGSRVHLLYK
UniProt P11798: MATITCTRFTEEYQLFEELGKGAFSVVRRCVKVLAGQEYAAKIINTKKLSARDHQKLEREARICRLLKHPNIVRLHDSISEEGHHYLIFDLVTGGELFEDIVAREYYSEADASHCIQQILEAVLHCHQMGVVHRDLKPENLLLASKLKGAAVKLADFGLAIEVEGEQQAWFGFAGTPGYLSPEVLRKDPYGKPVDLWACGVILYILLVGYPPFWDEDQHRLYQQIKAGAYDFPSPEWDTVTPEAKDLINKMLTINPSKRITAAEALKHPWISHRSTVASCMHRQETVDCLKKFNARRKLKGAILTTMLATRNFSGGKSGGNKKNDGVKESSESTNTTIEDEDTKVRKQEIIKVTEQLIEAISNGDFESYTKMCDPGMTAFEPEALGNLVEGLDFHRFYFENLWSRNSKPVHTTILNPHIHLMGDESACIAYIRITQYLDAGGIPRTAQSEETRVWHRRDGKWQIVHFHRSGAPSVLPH
UniProt P28652: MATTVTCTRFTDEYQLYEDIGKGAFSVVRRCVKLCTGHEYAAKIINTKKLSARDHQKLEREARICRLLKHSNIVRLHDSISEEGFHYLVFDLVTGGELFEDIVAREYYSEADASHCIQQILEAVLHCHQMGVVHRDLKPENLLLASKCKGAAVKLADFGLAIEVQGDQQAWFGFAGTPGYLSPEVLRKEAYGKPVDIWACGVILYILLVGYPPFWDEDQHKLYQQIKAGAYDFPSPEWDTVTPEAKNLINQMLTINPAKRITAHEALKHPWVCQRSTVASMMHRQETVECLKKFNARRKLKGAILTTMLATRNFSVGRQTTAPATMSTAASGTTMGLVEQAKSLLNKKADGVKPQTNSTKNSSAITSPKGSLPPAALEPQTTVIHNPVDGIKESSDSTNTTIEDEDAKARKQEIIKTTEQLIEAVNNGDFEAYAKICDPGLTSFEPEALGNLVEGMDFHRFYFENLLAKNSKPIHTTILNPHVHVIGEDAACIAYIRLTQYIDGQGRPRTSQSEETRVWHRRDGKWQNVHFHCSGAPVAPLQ

The target in this test is GABAB1 receptor subunit (mouse (endogenous in C57BL/6J hippocampus)) (UniProt Q9WV18). Kind of test: affinity purification with mass spectrometry; immunoprecipitation of endogenous GABAB1 from total hippocampal membrane fractions (1% Triton X100, 150 mM NaCl, 1 mM EDTA, 50 mM Tris-HCl pH 8.0) with anti-GABAB1 antibody and protein G agarose, 4°C; SDS-PAGE, bands digested in gel, nano-LC-ESI-CID/ETD-MS/MS.

“Calcium/calmodulin-dependent protein kinase II alpha subunit (from UniProt P11798 1-478) (enzyme)”: the binding entry is recorded as “binds”.

For “Calcium/calmodulin-dependent protein kinase II beta subunit (from UniProt P28652 1-542) (enzyme)”, the binding result is given as “binds”.

Values taken from PMC4609755.
